According to article PMC12083247:
No constants are given. Whether binding was seen depends on the method and setting. For some of these results: Binding seen in cells or lysates may run through a third protein. Some entries that bind do so weakly or less than the wild type. Each block holds one molecule with its values, some of them ahead of it.

Amino acid sequences for entries named in this document (tags omitted). A change or cut given only in a name is not applied to a line headed by its entry. Residues count along the entry.
UniProt P07355: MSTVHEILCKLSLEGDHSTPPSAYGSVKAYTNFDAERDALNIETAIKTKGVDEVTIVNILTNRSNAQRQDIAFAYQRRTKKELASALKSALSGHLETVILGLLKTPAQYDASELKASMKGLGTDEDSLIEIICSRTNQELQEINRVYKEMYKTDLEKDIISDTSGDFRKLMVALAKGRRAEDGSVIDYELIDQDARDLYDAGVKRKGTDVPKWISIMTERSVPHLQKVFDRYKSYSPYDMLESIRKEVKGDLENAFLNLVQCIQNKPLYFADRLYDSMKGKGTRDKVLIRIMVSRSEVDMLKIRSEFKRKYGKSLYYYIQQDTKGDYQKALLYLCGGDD
ANXA2(18-339)-HA: residues 18-339 of P07355
porcine calpain-1–treated annexin A2-HaloTag: residues 19-339 of P07355
UniProt P07384: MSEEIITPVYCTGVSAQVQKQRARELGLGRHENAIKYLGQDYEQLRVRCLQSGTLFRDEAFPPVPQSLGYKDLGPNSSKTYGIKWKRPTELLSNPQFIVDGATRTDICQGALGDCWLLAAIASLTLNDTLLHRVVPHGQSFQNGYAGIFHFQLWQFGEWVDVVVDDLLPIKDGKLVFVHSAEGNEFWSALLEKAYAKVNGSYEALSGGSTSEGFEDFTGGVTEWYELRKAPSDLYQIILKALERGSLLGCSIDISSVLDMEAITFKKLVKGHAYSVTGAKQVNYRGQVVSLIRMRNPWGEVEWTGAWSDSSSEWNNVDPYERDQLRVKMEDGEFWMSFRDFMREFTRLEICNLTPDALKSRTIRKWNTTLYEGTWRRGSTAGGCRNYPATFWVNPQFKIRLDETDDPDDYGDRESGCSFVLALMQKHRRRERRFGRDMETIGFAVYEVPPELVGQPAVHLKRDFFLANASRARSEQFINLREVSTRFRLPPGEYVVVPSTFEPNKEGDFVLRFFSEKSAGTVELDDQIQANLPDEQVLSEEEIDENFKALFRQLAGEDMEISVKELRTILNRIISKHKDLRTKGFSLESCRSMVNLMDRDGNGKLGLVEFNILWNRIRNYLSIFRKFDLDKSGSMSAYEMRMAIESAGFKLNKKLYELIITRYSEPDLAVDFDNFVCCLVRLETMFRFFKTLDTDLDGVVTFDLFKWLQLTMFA
UniProt P60903: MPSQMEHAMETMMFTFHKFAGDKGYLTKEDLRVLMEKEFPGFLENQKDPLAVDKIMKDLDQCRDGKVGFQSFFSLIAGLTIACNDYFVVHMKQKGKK

Key:
[1] = biological target: ANXA2[P20D, P21D]-HA (UniProt P07355); experiment: co-IP; anti-HA immunoprecipitation from lysates of HCT116 cells expressing HA-tagged annexin A2 constructs; immunoblot
[2] = biological target: WT ANXA2-HA (UniProt P07355); experiment: as above
[3] = biological target: ANXA2(18-339)-HA (UniProt P07355); experiment: as above
[4] = biological target: annexin A2-HaloTag (UniProt P07355); experiment: pull-down; HaloTag bait on chloroalkane-coated beads; Sypro Ruby total protein stain and gel excision-mass spectrometry; source of the prey not stated; only the target purified
[5] = biological target: porcine calpain-1–treated annexin A2-HaloTag (UniProt P07355); experiment: as above
[6] = biological target: annexin A2 (untagged, recombinant) (UniProt P07355); experiment: SEC; E. coli lysates of ANXA2 and S100A10 mixed 1:1, 2 mM CaCl2, co-purified by pelleting with membranes and ATP elution, then Superdex-200 in TBS
[7] = biological target: CAPN1[C115S]-3xFlag-6xHis in complex with CAPNS1(86–268) (UniProt P07384); experiment: pull-down; same substrate trapping; bound proteins eluted with TBS + 5 mM EGTA, then SDS (Laemmli) elution; immunoblot; only the target purified
[8] = biological target: CAPN1[C115S]-3xFlag-6xHis in complex with CAPNS1(86–268) (UniProt P07384); experiment: pull-down; substrate trapping: 3xFlag baits (6 μM) on anti-Flag agarose; HCT116 cytosol with 2 mM CaCl2 and E64, 2 h at 4°C; washes TBS + 1 mM CaCl2 + 0.01% Tween-20; immunoblot of elutions; only the target purified
[9] = biological target: CAPN1[C115S]-3xFlag-6xHis (human) (UniProt P07384); experiment: pull-down; His-tag purification (HisPure beads, TBS, 300 mM imidazole elution) of large subunit coexpressed with CAPNS1(86–268) in E. coli; Coomassie gel

binding [1]: binds
binding [2]: binds
binding [3]: no binding
binding [4]: binds
binding [5]: no binding
Molecule: S100A10 (from UniProt P60903 1-97)

binding [6]: binds
Molecule: S100A10 (recombinant) (from UniProt P60903 1-97)

binding [5]: no binding
Molecule: annexin A2 (from UniProt P07355 1-339)

binding [7]: no binding (condition: with 5 mM EGTA)
binding [8]: binds
B1: annexin A6 (protein, UniProt P08133 1-673)
chain: MAKPAQGAKYRGSIHDFPGFDPNQDAEALYTAMKGFGSDKEAILDIITSRSNRQRQEVCQSYKSLYGKDLIADLKYELTGKFERLIVGLMRPPAYCDAKEIKDAISGIGTDEKCLIEILASRTNEQMHQLVAAYKDAYERDLEADIIGDTSGHFQKMLVVLLQGTREEDDVVSEDLVQQDVQDLYEAGELKWGTDEAQFIYILGNRSKQHLRLVFDEYLKTTGKPIEASIRGELSGDFEKLMLAVVKCIRSTPEYFAERLFKAMKGLGTRDNTLIRIMVSRSELDMLDIREIFRTKYEKSLYSMIKNDTSGEYKKTLLKLSGGDDDAAGQFFPEAAQVAYQMWELSAVARVELKGTVRPANDFNPDADAKALRKAMKGLGTDEDTIIDIITHRSNVQRQQIRQTFKSHFGRDLMTDLKSEISGDLARLILGLMMPPAHYDAKQLKKAMEGAGTDEKALIEILATRTNAEIRAINEAYKEDYHKSLEDALSSDTSGHFRRILISLATGHREEGGENLDQAREDAQVAAEILEIADTPSGDKTSLETRFMTILCTRSYPHLRRVFQEFIKMTNYDVEHTIKKEMSGDVRDAFVAIVQSVKNKPLFFADKLYKSMKGAGTDEKTLTRIMVSRSEIDLLNIRREFIEKYDKSLHQAIEGDTSGDFLKALLALCGGED

binding [9]: binds
B2: CAPNS1(86–268) (domain or fragment, UniProt P04632 86-268)
chain: HYSNIEANESEEVRQFRRLFAQLAGDDMEVSATELMNILNKVVTRHPDLKTDGFGIDTCRSMVAVMDSDTTGKLGFEEFKYLWNNIKRWQAIYKQFDTDRSGTICSSELPGAFEAAGFHLNEHLYNMIIRRYSDESGNMDFDNFISCLVRLDAMFRAFKSLDKDGTGQIQVNIQEWLQLTMYS
